These are yes or no findings as the source states them, for the method shown. Some results given as binding are weak or reduced against the parent protein; the word gives no strength.
Molecular target: His-MBTD1 (UniProt Q05BQ5)
Experiment: ITC

By UniProt entry, the sequences of proteins in these tests, tags left out.
UniProt Q05BQ5: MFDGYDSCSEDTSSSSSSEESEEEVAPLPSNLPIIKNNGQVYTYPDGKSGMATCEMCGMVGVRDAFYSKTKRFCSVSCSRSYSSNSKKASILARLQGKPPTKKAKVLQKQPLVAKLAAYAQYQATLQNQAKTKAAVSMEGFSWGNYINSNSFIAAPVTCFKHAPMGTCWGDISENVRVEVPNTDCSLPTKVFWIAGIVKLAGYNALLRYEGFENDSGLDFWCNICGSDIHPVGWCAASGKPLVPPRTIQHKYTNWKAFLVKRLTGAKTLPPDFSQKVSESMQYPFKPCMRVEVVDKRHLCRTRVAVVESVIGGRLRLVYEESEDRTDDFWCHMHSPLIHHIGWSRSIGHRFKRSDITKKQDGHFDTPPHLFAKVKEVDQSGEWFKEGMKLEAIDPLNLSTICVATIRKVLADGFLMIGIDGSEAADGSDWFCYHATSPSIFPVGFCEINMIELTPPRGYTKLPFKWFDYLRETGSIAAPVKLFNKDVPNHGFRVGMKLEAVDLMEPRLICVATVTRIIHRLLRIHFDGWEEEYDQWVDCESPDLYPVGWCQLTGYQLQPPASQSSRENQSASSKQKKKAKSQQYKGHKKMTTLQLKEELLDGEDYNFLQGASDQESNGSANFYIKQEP

AKRHRKVLRDN (monomethyl-lysine at K20 (printed Kme, the sixth residue of the peptide)) [H4K20me1 peptide]
binding: binds
